PubChem BioAssay AID1159578, Peter MacCallum Cancer Centre | 2015

Test: 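Genome-wide hunt for genes controlling movement of lymphatic endothelial cells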 (primary screen)
Cells: human lymphatic endothelial cells
Knock-down reagent: siRNA pool against human genes, 40 nM
Duration: 48 h after transfection
Read-out: 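High-content imaging of dye-stained cells in a scratch assay measures filled wound area and nuclei per well; duplicate means given as ratio to mock and robust z-score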
Scale: migration robust z-score: higher = faster migration into the scratch; migration relative to mock: higher = more scratch area covered than mock; nuclei per well: higher = more cells in the well
Rule for the call: 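Pools averaging fewer than 3300 nuclei are never called; remaining pools count as changed when migration robust z lies outside -2 to 2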
Meaning of the calls: active = migration changed; inactive = no migration change, or too few cells
The whole screen tested about 18,000 reagents; below is a part drawn at random. Over the whole deposit, about 1,030 (5.7%) were called active. 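Inactive calls also include pools with fewer than 3300 nuclei, whose migration was not assessed.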 Raw values are not corrected between plates. Unmarked entries are inactive.

| gene symbol | PubChem SID | migration robust z-score | migration class with cell-count check | migration relative to mock | nuclei per well, duplicate mean |
| --- | --- | --- | --- | --- | --- |
| CTSA (cathepsin A) | SID255351721 | 0.52 | migration z between -2 and 2; enough cells | 0.9 | 5994 |
| SDE2 (spliceosome associated SDE2) | SID255363799 | -1.38 | migration z between -2 and 2; enough cells | 0.53 | 6843 |
| KLHDC1 (kelch domain containing 1) | SID255362561 | -0.07 | migration z between -2 and 2; enough cells | 0.87 | 5908 |
| MCOLN2 (mucolipin TRP cation channel 2) | SID255364488 | 0.16 | migration z between -2 and 2; enough cells | 0.84 | 5324 |
| FRAS1 (Fraser extracellular matrix complex subunit 1) | SID255360669 | 0.41 | migration z between -2 and 2; enough cells | 0.99 | 5386 |
| PRRG2 (proline rich and Gla domain 2) | SID255351848 | -0.28 | migration z between -2 and 2; enough cells | 0.82 | 5886 |
| DNAL1 (dynein axonemal light chain 1) | SID255361021 | 0.52 | migration z between -2 and 2; enough cells | 1.02 | 6632 |
| ALDH3B2 (aldehyde dehydrogenase 3 family member B2) | SID255348265 | 0.03 | migration z between -2 and 2; enough cells | 0.81 | 5306 |
| CASK (calcium/calmodulin dependent serine protein kinase) | SID255353660 | -2.99 (active) | migration z below -2; enough cells | 0.23 | 4586 |
| MYO5A (myosin VA) | SID255351118 | 0.52 | migration z between -2 and 2; enough cells | 0.9 | 6013 |
| OR1K1 (olfactory receptor family 1 subfamily K member 1) | SID255365703 | 0.94 | migration z between -2 and 2; enough cells | 1.12 | 5014 |
| OR5P3 (olfactory receptor family 5 subfamily P member 3) | SID255362487 | 1.11 | migration z between -2 and 2; enough cells | 1.18 | 5814 |
| METTL18 (methyltransferase 18, RPL3 N3(tau)-histidine) | SID255362003 | -0.72 | migration z between -2 and 2; enough cells | 0.7 | 5601 |
| TPCN1 (two pore segment channel 1) | SID255357924 | -1.4 | migration z between -2 and 2; enough cells | 0.54 | 4428 |
| SDC4 (syndecan 4) | SID255352346 | -0.16 | migration z between -2 and 2; enough cells | 0.84 | 5514 |
| PRSS35 (serine protease 35) | SID255363859 | -2.36 (active) | migration z below -2; enough cells | 0.35 | 5582 |
| PAXIP1 (PAX interacting protein 1) | SID255355902 | -0.58 | migration z between -2 and 2; enough cells | 0.74 | 5933 |
| PRM1 (protamine 1) | SID255351834 | -0.31 | migration z between -2 and 2; enough cells | 0.8 | 4848 |
| FCN1 (ficolin 1) | SID255349652 | -0.32 | migration z between -2 and 2; enough cells | 0.8 | 6660 |
| CEP104 (centrosomal protein 104) | SID255354508 | 0.54 | migration z between -2 and 2; enough cells | 1.02 | 6534 |
| SRGAP2 (SLIT-ROBO Rho GTPase activating protein 2) | SID255356196 | 0.04 | migration z between -2 and 2; enough cells | 0.9 | 7166 |
| STAC3 (SH3 and cysteine rich domain 3) | SID255364402 | 1.85 | migration z between -2 and 2; enough cells | 1.36 | 6236 |
| THYN1 (thymocyte nuclear protein 1) | SID255357128 | -5.58 | under 3300 nuclei; migration not judged | -0.6 | 1282 |
| OPN1MW2 (opsin 1, medium wave sensitive 2) | SID255366186 | -0.85 | migration z between -2 and 2; enough cells | 0.66 | 4577 |
| PGBD3 (piggyBac transposable element derived 3) | SID255364611 | 0.7 | migration z between -2 and 2; enough cells | 1.06 | 5130 |
| TSC2 (TSC complex subunit 2) | SID255352979 | -0.78 | migration z between -2 and 2; enough cells | 0.66 | 4010 |
| BCKDK (branched chain keto acid dehydrogenase kinase) | SID255354975 | 0.62 | migration z between -2 and 2; enough cells | 0.92 | 4102 |
| OPA3 (outer mitochondrial membrane lipid metabolism regulator OPA3) | SID255360702 | -0.8 | migration z between -2 and 2; enough cells | 0.65 | 4512 |
| APPL1 | SID255356647 | -2.44 (active) | migration z below -2; enough cells | 0.25 | 5604 |
| BSCL2 (BSCL2 lipid droplet biogenesis associated, seipin) | SID255356822 | -1.66 | migration z between -2 and 2; enough cells | 0.45 | 5652 |
| CCDC86 (coiled-coil domain containing 86) | SID255360203 | 0.52 | migration z between -2 and 2; enough cells | 1.02 | 5633 |
| ACVRL1 (activin A receptor like type 1) | SID255348168 | -1.64 | migration z between -2 and 2; enough cells | 0.49 | 4450 |
| TMEM41A (transmembrane protein 41A) | SID255361821 | -0.21 | migration z between -2 and 2; enough cells | 0.83 | 6870 |
| CLRN3 (clarin 3) | SID255362468 | 2.23 (active) | migration z above 2; enough cells | 1.47 | 6188 |
| DSC1 (desmocollin 1) | SID255349374 | 1.24 | migration z between -2 and 2; enough cells | 1.21 | 6634 |
| PCDH15 (protocadherin related 15) | SID255360099 | -0.02 | migration z between -2 and 2; enough cells | 0.8 | 4367 |
| FMOD (fibromodulin) | SID255349732 | -0.18 | migration z between -2 and 2; enough cells | 0.84 | 5423 |

Continued (6 carried over from the part before).
| gene symbol | PubChem SID | migration robust z-score | migration class with cell-count check | migration relative to mock | nuclei per well, duplicate mean |
| --- | --- | --- | --- | --- | --- |
| ACVRL1 (activin A receptor like type 1) | SID255348168 | -1.64 | migration z between -2 and 2; enough cells | 0.49 | 4450 |
| TMEM41A (transmembrane protein 41A) | SID255361821 | -0.21 | migration z between -2 and 2; enough cells | 0.83 | 6870 |
| CLRN3 (clarin 3) | SID255362468 | 2.23 (active) | migration z above 2; enough cells | 1.47 | 6188 |
| DSC1 (desmocollin 1) | SID255349374 | 1.24 | migration z between -2 and 2; enough cells | 1.21 | 6634 |
| PCDH15 (protocadherin related 15) | SID255360099 | -0.02 | migration z between -2 and 2; enough cells | 0.8 | 4367 |
| FMOD (fibromodulin) | SID255349732 | -0.18 | migration z between -2 and 2; enough cells | 0.84 | 5423 |
| PLA2G2A (phospholipase A2 group IIA) | SID255351607 | 0.7 | migration z between -2 and 2; enough cells | 0.94 | 6004 |
| TMEM65 (transmembrane protein 65) | SID255363623 | 0.56 | migration z between -2 and 2; enough cells | 1.04 | 4956 |
| RND1 (Rho family GTPase 1) | SID255357008 | -0.6 | migration z between -2 and 2; enough cells | 0.69 | 7412 |
| TM2D3 (TM2 domain containing 3) | SID255360707 | -0.77 | migration z between -2 and 2; enough cells | 0.68 | 6096 |
| KLKB1 (kallikrein B1) | SID255350655 | -1.43 | migration z between -2 and 2; enough cells | 0.53 | 6216 |
| TDRD5 (tudor domain containing 5) | SID255363790 | 0.82 | migration z between -2 and 2; enough cells | 1.1 | 4920 |
| AGPS (alkylglycerone phosphate synthase) | SID255353632 | -0.02 | migration z between -2 and 2; enough cells | 0.8 | 5488 |
| HMX1 (H6 family homeobox 1) | SID255350233 | -2.36 (active) | migration z below -2; enough cells | 0.35 | 3674 |
| RIN1 (Ras and Rab interactor 1) | SID255354409 | 1.08 | migration z between -2 and 2; enough cells | 1.17 | 5331 |
| CCDC73 (coiled-coil domain containing 73) | SID255366003 | 2.7 (active) | migration z above 2; enough cells | 1.58 | 7199 |
| DNAH9 (dynein axonemal heavy chain 9) | SID255349332 | -0.62 | migration z between -2 and 2; enough cells | 0.72 | 5190 |
| RABEP2 (rabaptin, RAB GTPase binding effector protein 2) | SID255360534 | -1.77 | migration z between -2 and 2; enough cells | 0.43 | 5694 |
| TPRN (taperin) | SID255364913 | 0.65 | migration z between -2 and 2; enough cells | 1.05 | 5364 |
| SEC23IP (SEC23 interacting protein) | SID255355674 | -0.52 | migration z between -2 and 2; enough cells | 0.75 | 6481 |
| PIP5K1A (phosphatidylinositol-4-phosphate 5-kinase type 1 alpha) | SID255353524 | -2.08 (active) | migration z below -2; enough cells | 0.4 | 4346 |
| VSTM1 (V-set and transmembrane domain containing 1) | SID255364783 | -2.54 (active) | migration z below -2; enough cells | 0.22 | 3360 |
| CDCP1 (CUB domain containing protein 1) | SID255360040 | -1.04 | migration z between -2 and 2; enough cells | 0.61 | 4148 |
| HNRNPLL (heterogeneous nuclear ribonucleoprotein L like) | SID255362042 | 0.52 | migration z between -2 and 2; enough cells | 1.02 | 6603 |
| DNASE2B (deoxyribonuclease 2 beta) | SID255359653 | 0.24 | migration z between -2 and 2; enough cells | 0.85 | 6107 |
| HEATR1 (HEAT repeat containing 1) | SID255358430 | 0.73 | migration z between -2 and 2; enough cells | 1.08 | 5676 |
| ZNF444 (zinc finger protein 444) | SID255358587 | -0.46 | migration z between -2 and 2; enough cells | 0.76 | 5109 |
| TMEM230 (transmembrane protein 230) | SID255357112 | 0.14 | migration z between -2 and 2; enough cells | 0.92 | 3762 |
| TUSC3 (tumor suppressor candidate 3) | SID255353358 | 0 | migration z between -2 and 2; enough cells | 0.8 | 6482 |
| SMOC1 (SPARC related modular calcium binding 1) | SID255359823 | 0.66 | migration z between -2 and 2; enough cells | 1.06 | 5820 |
| SNX4 (sorting nexin 4) | SID255353765 | -0.99 | migration z between -2 and 2; enough cells | 0.62 | 4895 |
| TUBA4A (tubulin alpha 4a) | SID255353000 | -3.76 | under 3300 nuclei; migration not judged | 0.08 | 3174 |
| UROC1 (urocanate hydratase 1) | SID255362905 | 1.2 | migration z between -2 and 2; enough cells | 1.04 | 5488 |
| ZCCHC17 (zinc finger CCHC-type containing 17) | SID255357774 | 1.24 | migration z between -2 and 2; enough cells | 1.2 | 5524 |
| ZNF442 (zinc finger protein 442) | SID255360603 | 0.92 | migration z between -2 and 2; enough cells | 1.12 | 5381 |
| ZNF100 (zinc finger protein 100) | SID255363784 | 0.8 | migration z between -2 and 2; enough cells | 1.09 | 6523 |
| ZNF775 (zinc finger protein 775) | SID255364890 | -2.04 (active) | migration z below -2; enough cells | 0.36 | 5755 |
| CDC42BPB (CDC42 binding protein kinase beta) | SID255354387 | 0.21 | migration z between -2 and 2; enough cells | 0.84 | 6032 |
| KCNJ1 (potassium inwardly rectifying channel subfamily J member 1) | SID255350606 | -1.4 | migration z between -2 and 2; enough cells | 0.54 | 4066 |
| SAXO2 (stabilizer of axonemal microtubules 2) | SID255364703 | 1.7 | migration z between -2 and 2; enough cells | 1.33 | 6578 |
| NSMCE1 (NSE1 component of SMC5/6 complex) | SID255363994 | 1.34 | migration z between -2 and 2; enough cells | 1.23 | 6766 |
| CENPK (centromere protein K) | SID255359831 | 0.24 | migration z between -2 and 2; enough cells | 0.95 | 4918 |
